We go through 57 compounds from the supplement of paper PMC5407854, “Inhibitor of ppGalNAc-T3-mediated O-glycosylation blocks cancer cell invasiveness and lowers FGF23 levels” (eLife, 2017).

Some of the results follow. Small differences around the control level are noise.

For one assay, the system named is ppGalNAc-T3 sensor. The assay is described as follows: T3 sensor activation Q score (MG/GFP ratio z-score vs DMSO controls) (SD units); higher = more sensor activation (inhibition of ppGalNAc-T3 glycosylation). The settings on record: HEK293 sensor cells; 10 µM; 6 h. Here is the method: (§1)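 Cells were treated with compound at 10 uM for 6 h, then MG/GFP ratio was read by flow cytometry (10,000 cells per well, duplicate wells). Q = (R - R_neg)/SD_neg relative to DMSO vehicle controls; the signal rises when the glycosyltransferase is inhibited.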

In a further assay the test system is ppGalNAc-T2 sensor. Description: T2 sensor activation Q score (MG/GFP ratio z-score vs DMSO controls) (SD units); higher = more sensor activation (inhibition of ppGalNAc-T2 glycosylation). The settings on record: HEK293 sensor cells; 10 µM; 6 h. Here is the method: as §1

As for `Cn1c(=O)[nH]c2nc(-c3ccccc3)[nH]c2c1=O`, the “T3 sensor activation Q score” value in the assay with ppGalNAc-T3 sensor is -0.1. In the assay with ppGalNAc-T2 sensor, the “T2 sensor activation Q score” value was determined as 0.11.
For `Cc1ccc(O)c(C(=O)CC(=O)c2cccc(F)c2)c1` the same measures were -1.05 and 0.15.
Take `C=CCn1c(SC(C)CC)nc(O)cc1=O` (centres undefined): in the assay with ppGalNAc-T3 sensor, the “T3 sensor activation Q score” value amounted to 0.675. Also, the “T2 sensor activation Q score” value in the assay on ppGalNAc-T2 sensor turned out to be 0.245.
On to `O=C(c1ccc(Br)cc1)N1CCN(c2ccc([N+](=O)[O-])cc2)CC1`, for which the “T3 sensor activation Q score” value with ppGalNAc-T3 sensor is -0.19. The “T2 sensor activation Q score” value in the assay with ppGalNAc-T2 sensor amounted to 0.135.
Take `CCCN(CCO)Cc1cccc(F)c1`: the “T3 sensor activation Q score” value with ppGalNAc-T3 sensor was -0.085. Moreover, the “T2 sensor activation Q score” value in the assay on ppGalNAc-T2 sensor was determined as 0.915.
For `c1ccc(-c2cc3c(ccc4nonc43)nn2)cc1` the same measures were 1.45 and -0.905.
For `O=S(=O)(c1ccccc1)N1CCN(Cc2ccccc2F)CC1` the same measures were -0.505 and -0.875.
For `O=C(NN1C(=O)c2ccccc2C1=O)c1cccc(Cl)c1` the same measures were 0.57 and -0.575.
For `O=C(NCCCCc1ccccc1)C12CC3CC(CC(C3)C1)C2`, in the assay on ppGalNAc-T3 sensor, the “T3 sensor activation Q score” value turned out to be 0.355. The “T2 sensor activation Q score” value in the assay on ppGalNAc-T2 sensor was -0.465.
The like results for `C=CCSc1nc2sc3c(c2c(=O)n1-c1ccccc1)CCN(C)C3` were, in that order, -0.295 and -0.38.
The like results for `COc1ccc(CCC(C)Nc2ccc(F)cc2)cc1` (centres undefined) were, in that order, -0.335 and 2.17.
For `CC1CC(Nc2ccccc2)c2ccccc2N1C(=O)c1ccco1` (centres undefined) the same measures were -0.13 and 0.045.
On to `CCCN(CCO)Cc1ccc(Cl)cc1Cl`, for which the “T3 sensor activation Q score” value with ppGalNAc-T3 sensor is 0.195. Also, the “T2 sensor activation Q score” value in the assay with ppGalNAc-T2 sensor was found to be 0.575.
The like results for `COc1ccc(S(=O)(=O)Nc2cccc(Cl)c2Cl)cc1` were, in that order, 0.355 and -0.92.
For `CC(C)NCC(O)COc1ccc(C(C)(C)C)cc1` (centres undefined) the same measures were -0.335 and -0.005.
Regarding `Cc1nc2c(=O)[nH]c3ccccc3c2o1`, in the assay with ppGalNAc-T3 sensor, the “T3 sensor activation Q score” value turned out to be 0.53. The “T2 sensor activation Q score” value in the assay with ppGalNAc-T2 sensor was 0.295.
For `Nc1cc(NC(=O)C23CC4CC(CC(C4)C2)C3)cc(Oc2ccccc2)c1` the same measures were 0.275 and 0.47.
For `CCCC(O)=C1C(=O)CC(C)(C)CC1=NC(CC)CO` (centres undefined) the same measures were -0.535 and -0.195.
The like results for `c1ccc(-n2cccc2CNC2CCCCC2)cc1` were, in that order, 0.31 and -0.415.
On to `c1ccc2c3c([nH]c2c1)-c1nonc1CC3`, for which, in the assay on ppGalNAc-T3 sensor, the “T3 sensor activation Q score” value was -0.38. In addition, the “T2 sensor activation Q score” value in the assay with ppGalNAc-T2 sensor worked out at 0.26.
Turning to `NC(=O)c1c(NC(=O)C23CC4CC(CC(C4)C2)C3)sc2c1CCCC2`, the “T3 sensor activation Q score” value in the assay on ppGalNAc-T3 sensor was -0.075. Also, the “T2 sensor activation Q score” value in the assay on ppGalNAc-T2 sensor is -0.2.
For `CCN(C(=O)C(C)Oc1ccccc1)c1ccccc1C` (centres undefined) the same measures were -0.675 and -0.035.
Consider `CN1C(=O)CC(=O)N(C)c2ccccc21`, for which the “T3 sensor activation Q score” value with ppGalNAc-T3 sensor was -0.225. Moreover, the “T2 sensor activation Q score” value in the assay on ppGalNAc-T2 sensor was -0.76.
Turning to `O=S(=O)(Nc1ccc(F)cc1)c1ccc(F)cc1`, the “T3 sensor activation Q score” value with ppGalNAc-T3 sensor was -0.245. For the same compound, the “T2 sensor activation Q score” value in the assay on ppGalNAc-T2 sensor is -0.555.
On to `CCOc1ccc(CN2CCN(Cc3ccc4c(c3)OCO4)CC2)cc1`, for which the “T3 sensor activation Q score” value in the assay with ppGalNAc-T3 sensor is -0.505. For the same compound, the “T2 sensor activation Q score” value in the assay on ppGalNAc-T2 sensor is -0.545.
The like results for `Nc1nc(C23CC4CC(CC(C4)C2)C3)cs1` were, in that order, -0.34 and 0.4.
For `O=C1C2ON(c3ccccc3)C(c3ccc(F)cc3)C2C(=O)N1Cc1ccccc1` (centres undefined), in the assay with ppGalNAc-T3 sensor, the “T3 sensor activation Q score” value was 0.695. Moreover, in the assay on ppGalNAc-T2 sensor, the “T2 sensor activation Q score” value is -1.09.
For `COc1ccccc1C1NC(C(=O)O)Cc2c1[nH]c1ccccc21` (centres undefined) the same measures were -0.65 and -1.59.
For `CC(=O)Nc1ccc2c(c1)N(C(C)=O)c1ccccc1CC2` the same measures were 0.2 and -0.49.
For `O=S(=O)(Nc1ccccn1)c1ccc(Cl)cc1` the same measures were -0.405 and -0.63.
With `Cc1ccc(CN2CCCN(C)CC2)c(C)c1`, the “T3 sensor activation Q score” value with ppGalNAc-T3 sensor is -0.385. Moreover, in the assay with ppGalNAc-T2 sensor, the “T2 sensor activation Q score” value is 1.22.
The like results for `CCN(CC)CCN(C)Cc1ccccc1F` were, in that order, 0.315 and 0.305.
The like results for `O=C(Nc1ccc(Cl)cc1)C(=O)NC1CC1` were, in that order, 0.455 and 0.155.
The like results for `CN(Cc1ccccc1)C(=O)c1ccc(Cl)cc1Cl` were, in that order, -0.1 and 0.37.
For `Nc1cc(N)nc(SCCOc2ccccc2)n1`, the “T3 sensor activation Q score” value with ppGalNAc-T3 sensor was -0.025. Moreover, the “T2 sensor activation Q score” value with ppGalNAc-T2 sensor was found to be 0.72.
The like results for `Cc1cc(C)c2ccc(NN)nc2c1O` were, in that order, 1.2 and 0.005.
For `CC(=O)c1ccc(N2CCOCC2)c(F)c1` the same measures were -0.145 and 0.405.
As for `COc1cc(C)c(CN(C)C2CCN(C)CC2)cc1C`, in the assay with ppGalNAc-T3 sensor, the “T3 sensor activation Q score” value amounted to 0.39. The “T2 sensor activation Q score” value in the assay on ppGalNAc-T2 sensor amounted to 0.39.
Take `CN(C)CCN(C)Cc1cc([N+](=O)[O-])ccc1O`: in the assay with ppGalNAc-T3 sensor, the “T3 sensor activation Q score” value is 0.155. Moreover, the “T2 sensor activation Q score” value in the assay on ppGalNAc-T2 sensor was 0.04.
The like results for `O=S(=O)(NC1CCCCC1)c1cccc2nsnc12` were, in that order, 1.4 and -0.71.
With `O=[N+]([O-])c1cc2c(cc1CN1CCN(c3ccc(F)cc3)CC1)OCO2`, the “T3 sensor activation Q score” value in the assay on ppGalNAc-T3 sensor is 0.17. Moreover, in the assay on ppGalNAc-T2 sensor, the “T2 sensor activation Q score” value was -0.96.
The like results for `NC12CC3CC(C1)CC(CC(=O)O)(C3)C2` were, in that order, 0.4 and -0.77.
The like results for `O=C1CC(NCCCN2CCOCC2)C(=O)N1c1ccc(Br)cc1` (centres undefined) were, in that order, -1.5 and -0.815.
The like results for `Cc1cn(S(=O)(=O)c2cc(Cl)ccc2Cl)cn1` were, in that order, 0.015 and 0.325.
Turning to `Cc1ccc(CN2CCCN(C)CC2)s1`, the “T3 sensor activation Q score” value in the assay with ppGalNAc-T3 sensor was -0.305. Besides, the “T2 sensor activation Q score” value with ppGalNAc-T2 sensor stood at 0.205.
The like results for `COc1ccc(CN2CCN(C/C=C/c3ccccc3)CC2)cc1OC` were, in that order, -0.775 and -0.405.
For `O=C(NCCCCc1ccccc1)c1ccccc1F` the same measures were 0.26 and -0.99.
For the compound `Cc1ccc(NC(=O)[C@@H]2C3C=CC(C3)[C@@H]2C(=O)O)c(C)c1` (some centres undefined), the “T3 sensor activation Q score” value in the assay on ppGalNAc-T3 sensor was -0.045. In the assay on ppGalNAc-T2 sensor, the “T2 sensor activation Q score” value is -1.94.
For `O=C(Nc1ccc(Br)cc1)c1cccs1` the same measures were -0.49 and -0.485.
Turning to `CN1CCN(NC(=O)c2sc3ccccc3c2Cl)CC1`, the “T3 sensor activation Q score” value with ppGalNAc-T3 sensor is -0.03. For the same compound, the “T2 sensor activation Q score” value in the assay on ppGalNAc-T2 sensor is 0.305.
The like results for `CCC1(C)CC(c2csc(N)n2)CCO1` (centres undefined) were, in that order, 0.005 and 0.3.
The like results for `Cc1cc(=O)n2ccc([N+](=O)[O-])c(O)c2n1` were, in that order, 0.75 and -0.41.
The like results for `Cc1cc(OCC(=O)NN)ccc1Cl` were, in that order, -0.335 and 1.33.
As to `Cc1ncc(C23CC4CC(CC(C4)C2)C3)[nH]1`, the “T3 sensor activation Q score” value with ppGalNAc-T3 sensor turned out to be 1.04. For the same compound, the “T2 sensor activation Q score” value with ppGalNAc-T2 sensor is 1.42.
The like results for `CS(=O)(=O)Nc1ccc(S(=O)(=O)N2CCCCC2)cc1` were, in that order, 0.6 and -0.325.
For `COc1ccc2[nH]c3c(c2c1)CCNC3=O` the same measures were 0.7 and 1.17.
For `Clc1ccc(CN2CCOCC2)cc1Cl` the same measures were -0.085 and -0.855.
